The text below walks through data of publication doi:10.1101/2025.03.24.645050.

Sequences of proteins named here, by UniProt entry; tags and fusion partners are left off. A change or cut given only in a name is not applied to a line headed by its entry.
UniProt Q96SW2: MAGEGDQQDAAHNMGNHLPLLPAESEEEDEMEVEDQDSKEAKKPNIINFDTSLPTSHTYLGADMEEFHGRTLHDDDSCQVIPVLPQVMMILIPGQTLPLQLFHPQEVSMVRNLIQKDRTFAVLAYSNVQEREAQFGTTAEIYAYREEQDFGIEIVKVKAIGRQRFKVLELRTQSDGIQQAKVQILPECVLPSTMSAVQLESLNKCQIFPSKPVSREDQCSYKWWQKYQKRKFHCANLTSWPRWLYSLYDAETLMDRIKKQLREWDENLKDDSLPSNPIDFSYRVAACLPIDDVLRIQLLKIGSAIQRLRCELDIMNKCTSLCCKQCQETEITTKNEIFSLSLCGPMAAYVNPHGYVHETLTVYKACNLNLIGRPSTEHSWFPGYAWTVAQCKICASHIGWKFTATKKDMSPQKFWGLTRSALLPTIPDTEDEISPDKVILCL
UniProt P15104: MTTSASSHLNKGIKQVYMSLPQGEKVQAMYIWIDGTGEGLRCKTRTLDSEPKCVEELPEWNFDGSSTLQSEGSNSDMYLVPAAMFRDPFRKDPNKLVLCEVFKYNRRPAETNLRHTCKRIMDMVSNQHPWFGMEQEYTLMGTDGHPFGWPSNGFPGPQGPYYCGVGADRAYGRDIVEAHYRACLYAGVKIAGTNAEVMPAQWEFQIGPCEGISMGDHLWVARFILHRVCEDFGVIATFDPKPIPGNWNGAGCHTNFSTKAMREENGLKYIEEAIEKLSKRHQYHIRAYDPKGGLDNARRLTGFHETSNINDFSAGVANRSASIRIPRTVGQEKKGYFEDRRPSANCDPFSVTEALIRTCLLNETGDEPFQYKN

In this assay the target is His6-CRBN/DDB1 complex (UniProt Q96SW2). Put plainly: AlphaScreen or HTRF.

These are yes or no findings as the source states them, for the method shown.

As for “Full-length GST-GLUL N373A incubated with PCMT1 (from UniProt P15104 1-373) (enzyme)”, the binding result is reported as “no binding”.
